{
  "source": "patent USRE49918E1",
  "about": "“Cytotoxic benzodiazepine derivatives” (priority 2011, dated 2024)",
  "tested_on": "HL60/QC tumors",
  "assay": "In vivo efficacy in HL60/QC tumor bearing nude mice",
  "conditions": "HL60/QC model",
  "experimental": "In this study, the anti-tumor activity of huMY9-6-SPDB-1f was investigated in female nude mice bearing HL60/QC tumors, a human acute myeloid leukemia model. HL60/QC tumor cells, 2×10^6 cells/mouse were subcutaneously inoculated at a volume of 0.1 mL/mouse in the area over the right shoulder of female athymic nude mice, 5 weeks of age. Eight days after tumor cell inoculation mice were randomized into groups (n=6 per group) by tumor volume. Treatment was initiated the day of randomization, and groups included a control group dosed with PBS (200 μL/injection), or a single treatment at various doses (5 to 100 μg/kg) of huMY9-6-SPDB-1f (50 μg/kg 1f dose corresponded to 2.5 mg/kg antibody dose). […] The minimum effective dose was estimated to be 20 μg/kg, which is about 35-fold lower that the maximum tolerated dose.\nTo compare in vivo efficacy of the subject conjugates prepared with or without an imine reactive group, huMy9-6-Drug 2 were formulated with or without 50 μM sodium bisulfite, and the conjugates were used to treat mice bearing HL60-QC tumor xenografts.",
  "data": [
    {"smiles": "CNC(=O)CCCSSC(C)(C)CN(CCOCCOCCOC)c1cc(COc2cc3c(cc2OC)C(=O)N2c4ccccc4C[C@H]2C=N3)cc(COc2cc3c(cc2OC)C(=O)N2c4ccccc4C[C@H]2CN3)c1", "note": "[huMy9-6-SPDB-1f]", "values": [
      {"measurement": "minimum effective dose fold lower than the maximum tolerated dose", "value": "at least 35 fold"},
      {"measurement": "minimum effective dose fold lower than the maximum tolerated dose", "setting": "listed as huMY9-6-SPDB-1f", "value": "about 35 fold"}
    ]}
  ]
}
